In PubChem BioAssay AID248 (DTP/NCI, 2004):
The list does not hold the whole screen: it is rich in T/C values a quarter to a half above the control, in often repeated tests (any T/C) and in doses without a T/C. Further doses and runs are listed elsewhere. T/C is the treated group as % of the vehicle group. Some doses have a count of surviving animals in place of a T/C: the source files T/C as zero there, which appears to mark a toxic dose or a test without result, not a measured value. Some survivor counts are full or nearly so, which does not show that the dose was tolerated: the source hardly ever lists a survival T/C far under the control, and the zero likely stands for such cases as well. Survivors were counted at the toxicity check, usually on the fifth day, unless a day is given; later deaths do not show. Schedules are NCI's codes, taken here to give the interval after Q, in days (D) or hours (H), and the number of doses after X. Some entries were tested several times; the results are listed from low to high. Some schedules carry Z or #; the key to these is not given. For survival time, the PubChem record calls one and a half times the control and up active, and a quarter to a half above the control has no call in these data; cut-offs in other NCI protocols can differ. Some T/C values are followed by the survivors on the day toxicity was checked, most often the fifth; where none is given, no animal had died by that day.

System: L1210 leukemia ip in BDF1 mice, survival T/C
Assay: NCI In Vivo Anticancer Drug Screen. Data for tumor model L1210 Leukemia (intraperitoneal) in B6D2F1 (BDF1) mice
Details: T/C endpoint: mean survival time, higher T/C = longer survival
[1] = dose: 100.0 mg/kg/injection, schedule: Q04DX003 (ip), vehicle: saline
[2] = dose: 200.0 mg/kg/injection, schedule: Q01DX001 (ip), vehicle: saline
[3] = dose: 400.0 mg/kg/injection, schedule: Q01DX001 (ip), vehicle: saline
[4] = dose: 12.5 mg/kg/injection, schedule: Q01DX009 (ip), vehicle: saline
[5] = dose: 50.0 mg/kg/injection, schedule: Q01DX009 (ip), vehicle: saline
[6] = dose: 100.0 mg/kg/injection, schedule: Q01DX009 (ip), vehicle: saline
[7] = dose: 200.0 mg/kg/injection, schedule: Q01DX009 (ip), vehicle: saline
[8] = dose: 100.0 mg/kg/injection, schedule: Q01DX009 (ip), vehicle: saline with Tween-80
[9] = dose: 100.0 mg/kg/injection, schedule: Q04DX002 (ip), vehicle: saline with Tween-80
[10] = dose: 200.0 mg/kg/injection, schedule: Q01DX009 (ip), vehicle: saline with Tween-80
[11] = dose: 200.0 mg/kg/injection, schedule: Q04DX002 (ip), vehicle: saline with Tween-80
[12] = dose: 400.0 mg/kg/injection, schedule: Q01DX009 (ip), vehicle: saline with Tween-80
[13] = dose: 400.0 mg/kg/injection, schedule: Q04DX002 (ip), vehicle: saline with Tween-80
[14] = dose: 200.0 mg/kg/injection, schedule: Q04DX003 (ip), vehicle: saline
[15] = dose: 400.0 mg/kg/injection, schedule: Q04DX003 (ip), vehicle: saline
[16] = dose: 400.0 mg/kg/injection, schedule: Q01DX009 (ip), vehicle: saline
[17] = dose: 400.0 mg/kg/injection, schedule: Q04DX002 (ip), vehicle: other
[18] = dose: 400.0 mg/kg/injection, schedule: Q04DX002 (ip), vehicle: Klucel (hydroxypropylcellulose) (HPC)
[19] = dose: 300.0 mg/kg/injection, schedule: Q01DX001 (ip), vehicle: saline
[20] = dose: 200.0 mg/kg/injection, schedule: Q04DX003 (ip), vehicle: saline with Tween-80

O=NN(CCCl)C(=O)Nc1cc2c3ccccc3ccc2c2ccccc12 was tested, and the T/C (dose: 266.0 mg/kg/injection, schedule: Q01DX009 (ip), vehicle: carboxymethylcellulose (CMC)) was 125 % of control and the T/C (dose: 400.0 mg/kg/injection, schedule: Q01DX009 (ip), vehicle: carboxymethylcellulose (CMC)) was 141 % of control.

CS/C(N)=N\N=C/c1ccccc1 was tested, and the survivor count (dose: 50.0 mg/kg/injection, schedule: Q04DX003 (ip), vehicle: saline) was 3 of 6, the survivor count [1] was 0 of 6 and the survivor count [2] was 0 of 6. The survivor count [3] was 0 of 6.

In the case of CCCCCCCCc1ccc(NNC(N)=S)cc1, the T/C [4] is reported as 125 % of control, the survivor count [5] is reported as 0 of 3 and the survivor count [6] is reported as 0 of 3. For the same compound, the survivor count [7] was 0 of 3.

With CCCOCCC(c1ccccc1)(c1ccccc1)c1ccccc1 the survivor count (dose: 50.0 mg/kg/injection, schedule: Q01DX009 (ip), vehicle: saline with Tween-80) was 3 of 3 and the survivor count [8] was 3 of 3.

c1cc[c]([Sn]([O][Sn]([c]2ccccc2)([c]2ccccc2)[c]2ccccc2)([c]2ccccc2)[c]2ccccc2)cc1 was tested, and the survivor count (dose: 80.0 mg/kg/injection, schedule: Q01DX001 (ip), vehicle: saline) was 3 of 6, the survivor count (dose: 100.0 mg/kg/injection, schedule: Q01DX001 (ip), vehicle: saline) was 0 of 6 and the survivor count [2] was 0 of 6. The survivor count [3] was 0 of 6.

For c1cc[c]([Sn]([c]2ccccc2)([c]2ccccc2)[n]2cccc2)cc1, the survivor count [9] was 1 of 3, the survivor count [10] was 0 of 6 and the survivor count [11] was 0 of 3. The survivor count [12] was 0 of 6 and the survivor count [13] was 0 of 3.

C=C1CC[N+]2(CC(C)C)CCCC12 (stereo not drawn) was tested, and the survivor count [1] was 4 of 6, the survivor count [14] was 0 of 6 and the survivor count [15] was 0 of 6.

CN(C)/N=N/c1ncn(C2CCCO2)c1C(N)=O (stereo not drawn) was tested, and the T/C (dose: 100.0 mg/kg/injection, schedule: Q01DX005 (ip), vehicle: saline) was 125 % of control.

CN(C)C=NC1(c2ccccc2)CCCCC1 was tested, and the survivor count [8] was 6 of 6.

C#CC[N+](CC#C)(CC#C)CC#C was tested, and the survivor count [6] was 1 of 6, the survivor count [7] was 0 of 6 and the survivor count [16] was 0 of 6.

With CC1(C)N=C(N)N=C(N)N1c1cccc(/C=C/C=C/c2cccc([N+](=O)[O-])c2)c1 the survivor count [2] was 0 of 4 and the survivor count [3] was 0 of 4.

With CCCCCCCCCC(=O)N1C(C)CCC1C (stereo not drawn) the survivor count [17] was 1 of 3.

CCOC(=O)C1=C(C)NC(C)=C(C(=O)OCC)C1c1ccccc1Cl was tested, and the survivor count [8] was 6 of 6, the survivor count [10] was 3 of 6 and the survivor count [12] was 0 of 6.

For CCC(O)(c1ccccc1)c1cnc(C)n1Cc1ccccc1 (stereo not drawn), the survivor count (dose: 400.0 mg/kg/injection, schedule: Q01DX001 (ip), vehicle: saline with Tween-80) was 1 of 3 and 2 of 6, the survivor count [18] was 3 of 3 and the survivor count (dose: 400.0 mg/kg/injection, schedule: Q04DX003 (ip), vehicle: saline with Tween-80) was 3 of 6.

In the case of Cc1cc(NC(=O)Nc2ccc(F)cc2)no1, the survivor count (dose: 100.0 mg/kg/injection, schedule: Q04DX002 (ip), vehicle: carboxymethylcellulose (CMC)) is reported as 3 of 3.

In the case of C=CC1CN2CCC1CC2C(O)c1ccnc2ccccc12 (stereo not drawn), the survivor count (dose: 400.0 mg/kg/injection, schedule: Q01DX009 (ip), vehicle: gum acacia) is reported as 3 of 6.

For CCCCCNC(C)C(=O)c1ccccc1 (stereo not drawn), the survivor count [6] was 0 of 6, the survivor count [14] was 0 of 6 and the survivor count [15] was 0 of 6.

For O=CCc1ccc2c(c1)OCO2, the survivor count (dose: 100.0 mg/kg/injection, schedule: Q01DX001 (ip), vehicle: carboxymethylcellulose (CMC)) was 4 of 4.

For C=C(Cl)C[N+]12CN3CN(CN(C3)C1)C2, the survivor count [1] was 1 of 6, the survivor count [14] was 0 of 6 and the survivor count [15] was 0 of 6.

In the case of C=CCSc1nccc(=O)[nH]1, the survivor count (dose: 400.0 mg/kg/injection, schedule: Q01DX009 (ip), vehicle: Klucel (hydroxypropylcellulose) (HPC)) is reported as 2 of 6.

With OC1(CCC2OCCO2)c2ccccc2-c2ccccc21 the survivor count [13] was 3 of 3.

For CCC(=O)c1ccc(N2CCCCC2)cc1, the survivor count [18] was 2 of 3.

With CC(=O)Nc1ccccc1C[P+](c1ccccc1)(c1ccccc1)c1ccccc1 the survivor count (dose: 100.0 mg/kg/injection, schedule: Q04DX003 (ip), vehicle: Klucel (hydroxypropylcellulose) (HPC)) was 5 of 6, the survivor count (dose: 200.0 mg/kg/injection, schedule: Q04DX003 (ip), vehicle: Klucel (hydroxypropylcellulose) (HPC)) was 0 of 6 and the survivor count (dose: 400.0 mg/kg/injection, schedule: Q04DX003 (ip), vehicle: Klucel (hydroxypropylcellulose) (HPC)) was 0 of 6.

In the case of CCOP(=O)(C(O)C(Cl)(Cl)Cl)C(O)C(Cl)(Cl)Cl (stereo not drawn), the survivor count (dose: 300.0 mg/kg/injection, schedule: Q04DX003 (ip), vehicle: saline with Tween-80) is reported as 6 of 6.

In the case of O=C(O)CCN(Cl)Cl, the survivor count [4] is reported as 1 of 6, the survivor count (dose: 25.0 mg/kg/injection, schedule: Q01DX009 (ip), vehicle: saline) is reported as 0 of 6 and the survivor count [5] is reported as 0 of 6. The survivor count [6] was 0 of 6, the survivor count [7] was 0 of 6 and the survivor count [16] was 0 of 6.

C=CCOCC(O)CNCCCOC (stereo not drawn) was tested, and the survivor count [16] was 0 of 6 and the survivor count [15] was 0 of 6.

For O=[N+]([O-])c1ccc(N=NNc2ccc(N=Nc3ccccc3)cc2)cc1, the survivor count (dose: 100.0 mg/kg/injection, schedule: Q01DX009 (ip), vehicle: Klucel (hydroxypropylcellulose) (HPC)) was 5 of 6.

In the case of CCOc1ccccc1C=C(C#N)C#N, the survivor count [11] is reported as 1 of 3 and the survivor count [13] is reported as 0 of 3.

C[n+]1ccc(C(=O)c2ccccc2)cc1 was tested, and the survivor count [19] was 0 of 6.

Cc1nc(N)sc1C was tested, and the survivor count [9] was 1 of 5.

For CN(C)CCNCC(Cc1ccccc1)c1ccccc1 (stereo not drawn), the survivor count (dose: 200.0 mg/kg/injection, schedule: Q04DX002 (ip), vehicle: saline) was 1 of 3 and the survivor count (dose: 400.0 mg/kg/injection, schedule: Q04DX002 (ip), vehicle: saline) was 0 of 3.

With Brc1ccc(C[N+]23CN4CN(CN(C4)C2)C3)cc1 the survivor count [12] was 0 of 6 and the survivor count (dose: 480.0 mg/kg/injection, schedule: Q01DX015 (ip), vehicle: saline) was 0 of 6.

Cc1ccc(Cl)cc1NC(=O)OCCOc1ccccc1 was tested, and the survivor count [20] was 6 of 6.

With Cc1ccnc(NS(=O)(=O)c2ccc(N=Nc3cc(N=Nc4ccccc4)c(N)nc3N)cc2)n1 the survivor count (dose: 400.0 mg/kg/injection, schedule: Q01DX001 (ip), vehicle: carboxymethylcellulose (CMC)) was 2 of 4.

For CC(O)c1cc(Cl)ccc1Cl (stereo not drawn), the survivor count [20] was 0 of 6.

In the case of NC(N)=Nc1ccc(-c2ccc(N=C(N)N)cc2)cc1, the survivor count (dose: 400.0 mg/kg/injection, schedule: Q01DX Z (oral), vehicle: saline) is reported as 1 of 6.

In the case of CNC(=O)Oc1ccc(-c2ccccc2)cc1Cl, the T/C [8] is reported as 88, 103 [2 of 3 alive], 105, 106 % of control [4 of 6 alive], the survivor count [10] is reported as 3 of 3 and the survivor count [12] is reported as 3 of 6 and 3 of 3.

O=C(CCl)NC1=C(Cl)C(=O)c2ccccc2C1=O was tested, and the survivor count (dose: 150.0 mg/kg/injection, schedule: Q01DX001 (ip), vehicle: saline) was 2 of 6 and the survivor count [19] was 3 of 6.

With CN1C(=O)C(C)(C)C(=O)c2ccccc21 the survivor count (dose: 100.0 mg/kg/injection, schedule: Q04DX002 (ip), vehicle: other) was 3 of 3, the survivor count (dose: 200.0 mg/kg/injection, schedule: Q04DX002 (ip), vehicle: other) was 3 of 3 and the survivor count [17] was 3 of 3.
